# Assay results as given in PMC7819943, “Rice protein-binding microarrays: a tool to detect cis-acting elements near promoter regions in rice”.
# Sequences of proteins named here, by UniProt entry; tags and fusion partners are left off.
# UniProt Q0JBA9, entry or part of it: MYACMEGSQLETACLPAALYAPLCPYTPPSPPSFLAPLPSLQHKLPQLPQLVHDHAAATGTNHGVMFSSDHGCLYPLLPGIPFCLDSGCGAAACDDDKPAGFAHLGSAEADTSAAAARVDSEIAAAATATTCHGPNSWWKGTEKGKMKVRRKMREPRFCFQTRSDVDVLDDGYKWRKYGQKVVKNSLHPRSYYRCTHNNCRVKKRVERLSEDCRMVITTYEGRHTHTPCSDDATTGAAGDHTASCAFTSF
# The other results are listed elsewhere or left out.
# Target: OsWRKY34 (Oryza sativa, UniProt Q0JBA9 1-250)
# Test: protein-binding microarray (RPBM); PBS, 2% BSA, 51.3 ng/ul salmon testes DNA, 50 uM zinc acetate, 200 nM TF, 25 C, 1 h; high values mean tight binding
# Details: protein: recombinant; tags: N-terminal polyhistidine and DsRed monomer fusion (pET32a); label: CyDye5-dUTP incorporated in the synthesized complementary strand; 3' TTTTT single-stranded linker to array surface; dsDNA, one strand shown
# In short: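 For the binding signal, per-feature fluorescence intensity was read in arbitrary units on an Axon 4000B scanner. Before scanning, a 2% BSA-blocked custom Agilent array made double-stranded with Cy5-dUTP was washed after 1 h at 25 °C with 200 nM protein and 50 µM zinc acetate. The proteins were Ni–NTA-purified transcription factors with N-terminal polyhistidine and DsRed fusions, expressed in E. coli BL21-CodonPlus.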
row,Sequence,binding signal
1,CCGCAAACCCACTCCGATCGCAAATACTCTCTCTCGCCGACGGAGTCACCTAGTGCAG,9170 fluorescence intensity (a.u.)
2,TTGCGCCAAGACGAGTCGCGGGTGAACAGGGGAGGGGACGCGGAGTCACCTAGTGCAG,8390 fluorescence intensity (a.u.)
3,CGTTGCATATCGTGTCCGTTTTCTTTGTTCTTTACCTGCTCGGAGTCACCTAGTGCAG,12100 fluorescence intensity (a.u.)
4,ATATCATATCAGCTGGACGATATCGCTAACGTTATCCTTACGGAGTCACCTAGTGCAG,8860 fluorescence intensity (a.u.)
5,TTAACTCGACAGTTTGTGTGTGATTTCAGTACTACCACGACGGAGTCACCTAGTGCAG,10400 fluorescence intensity (a.u.)
6,GCCAACACCGCTACACCCAGCGCAAAACCTCGCATTCCTGCGGAGTCACCTAGTGCAG,8790 fluorescence intensity (a.u.)
7,TATGGCACGGTTTATTTTCCTTTCATTTCTACAGGCAGATCGGAGTCACCTAGTGCAG,8910 fluorescence intensity (a.u.)
8,CTTTGTCTATATAGGAGTATTATTTATGTGCTATAACCTTCGGAGTCACCTAGTGCAG,8600 fluorescence intensity (a.u.)
9,GCCTGAGCTGCTTGTTTCAACCGAGATAATTACGTTGACTCGGAGTCACCTAGTGCAG,9500 fluorescence intensity (a.u.)
10,ATCCGATCCGCTTTCATCCCTAGACTGCATGGCGCGGTTCCGGAGTCACCTAGTGCAG,8110 fluorescence intensity (a.u.)
11,CCATTTCATATTGTAAGACTTTTTAGCATTGCCTATATTTCGGAGTCACCTAGTGCAG,11600 fluorescence intensity (a.u.)
12,GTGGTGGTCTTGGCCATGGAGGCGGCATTGGAGGCGGGTTCGGAGTCACCTAGTGCAG,8410 fluorescence intensity (a.u.)
13,GATCCTATCCCAGTTCTTTAATGAATATTTTTAGCTATCGCGGAGTCACCTAGTGCAG,8500 fluorescence intensity (a.u.)
14,GTTTTTATCTCTCCTGCAATTCTATATGTGCTGTACACCACGGAGTCACCTAGTGCAG,8450 fluorescence intensity (a.u.)
15,TCATGTGTTTTTTTTATATTTGTTCATTTTATTAATCATGCGGAGTCACCTAGTGCAG,9890 fluorescence intensity (a.u.)
16,GACTACGGCGCGCGGGCGGGCGGGAGGGCGGACGCGGCGGCGGAGTCACCTAGTGCAG,11800 fluorescence intensity (a.u.)
17,GATCTAAGCCACGTTTCCACTTCCATCCCGCGGCGCCGCCCGGAGTCACCTAGTGCAG,14300 fluorescence intensity (a.u.)
18,GTTTCTATCCGTTCTGATTTGTTGTATTGGAAAAATAATTCGGAGTCACCTAGTGCAG,8160 fluorescence intensity (a.u.)
19,TCACTACTGTTGATGTGCTTATTTTATGTTCCACCTGGTGCGGAGTCACCTAGTGCAG,10000 fluorescence intensity (a.u.)
20,CGGGGTGTAGTCGTCCTGCATTTTGGGTTTTGCAAACCTCCGGAGTCACCTAGTGCAG,11800 fluorescence intensity (a.u.)
21,CGTCTCGTCTGCGCTCCTTCGCCTGCGCCGATCTCCATCTCGGAGTCACCTAGTGCAG,9280 fluorescence intensity (a.u.)
22,TAAGACGTTTTGACTTTGGTCAAACTGTTTGGTCAAAGTCCGGAGTCACCTAGTGCAG,10600 fluorescence intensity (a.u.)
23,GTGCTCTCTAGTTTTATACTCCATCTCGCTCGCTCACTCACGGAGTCACCTAGTGCAG,12600 fluorescence intensity (a.u.)
24,AGTCATTGTTTTAGGATGTGTCACATCCACCCAAAATCACCGGAGTCACCTAGTGCAG,9770 fluorescence intensity (a.u.)
25,ACGCTGTTGTAATTCCAGATGTTGGTCAGTAGTCATTACTCGGAGTCACCTAGTGCAG,10700 fluorescence intensity (a.u.)
26,ATACTGATCTTTGCATTCTCATACCCCATACACCACAAAACGGAGTCACCTAGTGCAG,8900 fluorescence intensity (a.u.)
27,CCATCCATCCTGTTTTCCCACATGGTATCAGAGCGCTGAACGGAGTCACCTAGTGCAG,9540 fluorescence intensity (a.u.)

# Four records drawn at random from those above, as already listed:
row,Sequence,binding signal
1,CCGCAAACCCACTCCGATCGCAAATACTCTCTCTCGCCGACGGAGTCACCTAGTGCAG,9170 fluorescence intensity (a.u.)
5,TTAACTCGACAGTTTGTGTGTGATTTCAGTACTACCACGACGGAGTCACCTAGTGCAG,10400 fluorescence intensity (a.u.)
19,TCACTACTGTTGATGTGCTTATTTTATGTTCCACCTGGTGCGGAGTCACCTAGTGCAG,10000 fluorescence intensity (a.u.)
2,TTGCGCCAAGACGAGTCGCGGGTGAACAGGGGAGGGGACGCGGAGTCACCTAGTGCAG,8390 fluorescence intensity (a.u.)

# Further records follow.

row,Sequence,binding signal
1,GTCGCGCTCGGCCTTTCTGCTTTCGCTTTCACAGTTTCACCGGAGTCACCTAGTGCAG,12000 fluorescence intensity (a.u.)
2,AAAATCTAGCGTTCCTTTGCTACTCCGTAGTTTCCGTCGACGGAGTCACCTAGTGCAG,8810 fluorescence intensity (a.u.)
3,CCACTGCATACCAACACCAACCACTGTACTAGCACTACTACGGAGTCACCTAGTGCAG,8980 fluorescence intensity (a.u.)
4,TTGTTGATTTTTTTTCAGAATTTTTATCACTATTTGTCTTCGGAGTCACCTAGTGCAG,8570 fluorescence intensity (a.u.)
5,ATTCTGCTATAGCCCTTTGTTTCAATCTGTTATTCTTGTGCGGAGTCACCTAGTGCAG,8300 fluorescence intensity (a.u.)
6,GCTAAGTGAAGGCTTATTGTTGCTGATGGTCAGGCTTGTTCGGAGTCACCTAGTGCAG,8720 fluorescence intensity (a.u.)
7,GATGAGTCGCTCCAGCCACATGTGAACCCGGCCGGCCGGCCGGAGTCACCTAGTGCAG,9980 fluorescence intensity (a.u.)
8,TCAACATTTTGCTTGTTTTTTTTAGTCTGGTCCCATCTGTCGGAGTCACCTAGTGCAG,10000 fluorescence intensity (a.u.)
9,TCCGCGCTATTCTCCGTCCTGACGACTAGCCACCGTCTTCCGGAGTCACCTAGTGCAG,9390 fluorescence intensity (a.u.)
10,GTTTTATGACACTTCTAGTTATATATTTTCTATTTTTTTACGGAGTCACCTAGTGCAG,9540 fluorescence intensity (a.u.)
11,TTCTGGTTCTAGTTCATTTTCTGGATTCTACAACTACATACGGAGTCACCTAGTGCAG,9620 fluorescence intensity (a.u.)
12,TTTTAATAGCATCATATCCGTCCGTTCTATCCTACGCATACGGAGTCACCTAGTGCAG,12600 fluorescence intensity (a.u.)
13,GCCCATATTGATGTATTCATTACCAGAAACTGTGTATCGGCGGAGTCACCTAGTGCAG,8750 fluorescence intensity (a.u.)
14,ACTGGAAAATTTGGTCCACCTGTCTCGTCAACAGATTTCACGGAGTCACCTAGTGCAG,8770 fluorescence intensity (a.u.)
15,AACTTTGATTATATCATGTTTATTTCCAGTGGTTGTGTTACGGAGTCACCTAGTGCAG,10200 fluorescence intensity (a.u.)
16,CTAGAATATCAGCTGTTGATGGTACCTTTTTTATTTCAATCGGAGTCACCTAGTGCAG,11300 fluorescence intensity (a.u.)
17,GATAATAAGCCAAATCTCACCGACATGTATCACCCAAAATCGGAGTCACCTAGTGCAG,8280 fluorescence intensity (a.u.)
18,TTACCTTAGATTTGGTAGGGCTGGTTAGGGCTGGTTGGAGCGGAGTCACCTAGTGCAG,8680 fluorescence intensity (a.u.)
19,CCCTGATTATTTTTTTTTCCCAAATCCAAAAAGGCTAGATCGGAGTCACCTAGTGCAG,8410 fluorescence intensity (a.u.)
20,CTTCGCCTCATTCATATCCCTGTACTTCCGATGACACGTCCGGAGTCACCTAGTGCAG,12200 fluorescence intensity (a.u.)
21,CCTGATCCTCCTGCCACCGCGGCCGCAGCAGCAGCAGCAGCGGAGTCACCTAGTGCAG,8300 fluorescence intensity (a.u.)
22,ACATATTATTGTGTATTATTGTGTAGTATTCCTTCCGTTGCGGAGTCACCTAGTGCAG,8380 fluorescence intensity (a.u.)
23,GCCGCCTCTTCCTTTTTTTCACCAGCGGCGGCGTCCGAATCGGAGTCACCTAGTGCAG,8650 fluorescence intensity (a.u.)
24,TATAGATTTTTAGAGTTATATCACAGTCTCATCAGCTCTTCGGAGTCACCTAGTGCAG,8610 fluorescence intensity (a.u.)
25,TAAACCACTGCCACTATTGTGCATTTCATTTGATTTAACACGGAGTCACCTAGTGCAG,9040 fluorescence intensity (a.u.)
26,ATAATAGGGTTATTCATAATATGGCAGGGTTTTTGGTTAGCGGAGTCACCTAGTGCAG,10300 fluorescence intensity (a.u.)
27,TTAAAACTCTCGAATTGACTCGCCGCCATTGTTGCTCCTCCGGAGTCACCTAGTGCAG,8570 fluorescence intensity (a.u.)
